The text below walks through data of article PMC11998489.

Protein sequences, listed by entry. Tags and fused reporters are not part of them.
UniProt P16709: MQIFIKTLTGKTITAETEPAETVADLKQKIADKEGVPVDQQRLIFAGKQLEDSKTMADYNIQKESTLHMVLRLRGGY

The target of one test is Vps4 (S. frugiperda) (UniProt G3LZX7). Briefly: two-hybrid; Y2H screen with Vps4 or Vta1 as the bait and 14 BV envelope proteins of AcMNPV as the prey; growth on QDO (SD/-Ade/-His/-Leu/-Trp).
The next test addresses T1, Ac92 (P33) (AcMNPV) (UniProt P41480).
T1 sequence: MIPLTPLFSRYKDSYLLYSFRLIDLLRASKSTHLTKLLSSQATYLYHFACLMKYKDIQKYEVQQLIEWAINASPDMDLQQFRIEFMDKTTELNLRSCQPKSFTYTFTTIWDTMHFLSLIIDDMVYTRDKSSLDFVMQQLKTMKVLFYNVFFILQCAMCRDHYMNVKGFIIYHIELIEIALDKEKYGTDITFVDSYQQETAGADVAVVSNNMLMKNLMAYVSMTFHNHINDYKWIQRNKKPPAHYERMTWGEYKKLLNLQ
Briefly: two-hybrid; Y2H with the viral proteins as the bait and Vps4 or Vta1 as the prey (extended Fig. S4).

Test [1] has as its target Vps4-HA-Nm (S. frugiperda) (UniProt G3LZX7). Briefly: split reporter; mCherry BiFC (Nm and Cm fusions) in Sf9 cells transfected with a pair of plasmids (2 ug/well each); 36 h p.t.; epifluorescence microscopy; percentage of fluorescent cells in each field.
A further test deals with Ac35 (vUbi) (AcMNPV) (UniProt P16709). Briefly: two-hybrid; Y2H with the viral proteins as the bait and Vps4 or Vta1 as the prey (extended Fig. S4).
Another test deals with Vta1 (S. frugiperda). Nature of the test: two-hybrid; Y2H screen with Vps4 or Vta1 as the bait and 14 BV envelope proteins of AcMNPV as the prey; growth on QDO (SD/-Ade/-His/-Leu/-Trp).
The target of test [2] is Nm-HA-Vta1 (S. frugiperda). Nature of the test: split reporter; mCherry BiFC (Nm and Cm fusions) in Sf9 cells transfected with a pair of plasmids (2 ug/well each); 36 h p.t.; epifluorescence microscopy; percentage of fluorescent cells in each field.

These are yes or no findings as the source states them, for the method shown. Binding can be weak; no strength is given. For part of these data: In cells and extracts the contact can be indirect. For part of these data: Where a sequence is shown, tags or fusion partners need not be part of it.

Take Ac35 (vUbi) (from UniProt P16709 1-77): the binding result in the test with Vps4 (S. frugiperda) is recorded as “binds”.

For Vta1 (S. frugiperda), in the test with Ac92 (P33) (AcMNPV), the binding entry is given as “binds”.

As to “Ac35 (vUbi) (BiFC fusion) (from UniProt P16709 1-77)”, the binding result in test [1] is reported as “binds weakly”.

As to Vps4 (from UniProt G3LZX7) (enzyme), in the test with Ac35 (vUbi) (AcMNPV), the binding result was “binds”.

B1: Ac92 (P33) (protein, UniProt P41480 1-259)
chain: T1 sequence
Take B1: the binding entry in the test with Vta1 (S. frugiperda) is “binds”.

B2: Ac92 (P33) (BiFC fusion) (protein, UniProt P41480 1-259)
chain: T1 sequence
In the case of B2, the binding entry in test [2] is “binds weakly”.
